For at least one compound, name, drawing or mass did not settle the structure.
Test system: V. cholerae
Experiment: Growth assay in MMPyr (OD615) and plating for CFU

CCCc1c(O)ccc(O)c1CO [Compound 1, 2-(hydroxymethyl)-3-propyl hydroquinone]
growth of V. cholerae (MMPyr, at higher concentrations (than 261 μM)): completely inhibit growth | bacteriostatic or bactericidal activity (at higher concentrations): bactericidal

Reference: patent publication US9359275B2, “Natural product antibiotics and analogs thereof” (Children's Medical Center Corporation, priority 2012, dated 2016)
